# This is one part of the list.
# B1: GST Gap3 (Streptococcus parasanguinis) (protein)
# chain: MTKQLISEIYWNEIRKGENYLYGSQIKFQEDLVNFYNPQLASGKPIVTFKSRTNYQGDRHSPDLPILIQGNRYLLEYQIDAVPANSFFLQLDFFNRQAEQIESIVLRNSGESFIFPKDTFTYTLTLMSAGCQSVTYQKFMIYDINDEEKKNHIVENRYLRELLPKDLDLVKNLIEYI
# How the values were obtained:
# Experiment in all cases: glycan array binding signal (z-score within array); higher = stronger binding
# Conditions in all cases: glycan notation: IUPAC condensed, linker removed
# [1] = target: Neu5Ac(a2-3)Gal(b1-3)[Neu5Ac(a2-6)]GlcNAc(b1-3)[Fuc(a1-3)[Gal(b1-4)]GlcNAc(b1-6)]Gal(b1-4)Glc
# Outline: (§1)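 Glycan array data came from 3228 arrays in the Consortium for Functional Glycomics database, and only arrays with an available protein sequence were kept. Glycan names were put into IUPAC-condensed notation, and columns mapping to the same glycan were averaged. The binding signal is a within-array Z-score, averaged across arrays of one protein sequence run at different concentrations or buffers and across linkers. A negative Z-score can be read as non-binding.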
# [2] = target: Neu5Ac(a2-3)Gal(b1-3)]Neu5Ac(a2-3)Gal(b1-4)]GlcNAc
# Outline: as §1
# [3] = target: Neu5Ac(a2-3)Gal(b1-4)Glc
# Outline: as §1
# [4] = target: Neu5Ac(a2-3)Gal(b1-4)GlcNAc
# Outline: as §1
# [5] = target: Neu5Ac(a2-3)Gal(b1-4)GlcNAc(b1-2)Man
# Outline: as §1
# [6] = target: Neu5Ac(a2-3)Gal(b1-4)GlcNAc(b1-2)Man(a1-3)[GlcNAc(b1-2)Man(b1-4)GlcNAc(b1-2)Man(a1-6)]Man(b1-4)GlcNAc(b1-4)GlcNAc
# Outline: as §1
# [7] = target: Neu5Ac(a2-3)Gal(b1-4)GlcNAc(b1-2)Man(a1-3)[GlcNAc(b1-4)][Neu5Ac(a2-3)Gal(b1-4)GlcNAc(b1-2)Man(a1-6)]Man(b1-4)GlcNAc(b1-4)GlcNAc
# Outline: as §1
# [8] = target: Neu5Ac(a2-3)Gal(b1-4)GlcNAc(b1-2)Man(a1-3)[Neu5Ac(a2-3)Gal(b1-4)GlcNAc(b1-2)Man(a1-6)]Man(b1-4)GlcNAc(b1-4)GlcNAc
# Outline: as §1
# [9] = target: Neu5Ac(a2-3)Gal(b1-4)GlcNAc(b1-2)Man(a1-3)[Neu5Ac(a2-3)Gal(b1-4)GlcNAc(b1-2)Man(a1-6)]Man(b1-4)GlcNAc(b1-4)[Fuc(a1-6)]GlcNAc
# Outline: as §1
# [10] = target: Neu5Ac(a2-3)Gal(b1-4)GlcNAc(b1-2)Man(a1-3)[Neu5Ac(a2-6)Gal(b1-4)GlcNAc(b1-2)Man(a1-6)]Man(b1-4)GlcNAc(b1-4)GlcNAc
# Outline: as §1
# [11] = target: Neu5Ac(a2-3)Gal(b1-4)GlcNAc(b1-2)[Neu5Ac(a2-3)Gal(b1-4)GlcNAc(b1-4)]Man(a1-3)[GlcNAc(b1-4)][Neu5Ac(a2-3)Gal(b1-4)GlcNAc(b1-2)[Neu5Ac(a2-3)Gal(b1-4)GlcNAc(b1-6)]Man(a1-6)]Man(b1-4)GlcNAc(b1-4)GlcNAc
# Outline: as §1
# [12] = target: Neu5Ac(a2-3)Gal(b1-4)GlcNAc(b1-2)[Neu5Ac(a2-3)Gal(b1-4)GlcNAc(b1-4)]Man(a1-3)[GlcNAc(b1-4)][Neu5Ac(a2-3)Gal(b1-4)GlcNAc(b1-4)Man(a1-6)]Man(b1-4)GlcNAc(b1-4)GlcNAc
# Outline: as §1
# [13] = target: Neu5Ac(a2-3)Gal(b1-4)GlcNAc(b1-2)[Neu5Ac(a2-3)Gal(b1-4)GlcNAc(b1-6)]Man(a1-6)[Neu5Ac(a2-3)Gal(b1-4)GlcNAc(b1-2)Man(a1-3)][GlcNAc(b1-4)]Man(b1-4)GlcNAc(b1-4)GlcNAc
# Outline: as §1
# [14] = target: Neu5Ac(a2-3)Gal(b1-4)GlcNAc(b1-3)Gal
# Outline: as §1
# [15] = target: Neu5Ac(a2-3)Gal(b1-4)GlcNAc(b1-3)Gal(b1-3)GlcNAc
# Outline: as §1
# [16] = target: Neu5Ac(a2-3)Gal(b1-4)GlcNAc(b1-3)Gal(b1-4)GlcNAc
# Outline: as §1
# [17] = target: Neu5Ac(a2-3)Gal(b1-4)GlcNAc(b1-3)Gal(b1-4)GlcNAc(b1-2)Man(a1-3)[Neu5Ac(a2-3)Gal(b1-4)GlcNAc(b1-3)Gal(b1-4)GlcNAc(b1-2)Man(a1-6)]Man(b1-4)GlcNAc(b1-4)GlcNAc
# Outline: as §1
# [18] = target: Neu5Ac(a2-3)Gal(b1-4)GlcNAc(b1-3)Gal(b1-4)GlcNAc(b1-3)Gal(b1-4)GlcNAc
# Outline: as §1
# [19] = target: Neu5Ac(a2-3)Gal(b1-4)GlcNAc(b1-3)Gal(b1-4)GlcNAc(b1-3)Gal(b1-4)GlcNAc(b1-2)Man(a1-3)[Neu5Ac(a2-3)Gal(b1-4)GlcNAc(b1-3)Gal(b1-4)GlcNAc(b1-3)Gal(b1-4)GlcNAc(b1-2)Man(a1-6)]GalNAc
# Outline: as §1
# [20] = target: Neu5Ac(a2-3)Gal(b1-4)GlcNAc(b1-3)Gal(b1-4)GlcNAc(b1-3)GalNAc
# Outline: as §1
# [21] = target: Neu5Ac(a2-3)Gal(b1-4)GlcNAc(b1-3)Gal(b1-4)GlcNAc(b1-3)[Neu5Ac(a2-3)Gal(b1-4)GlcNAc(b1-3)Gal(b1-4)GlcNAc(b1-6)]GalNAc
# Outline: as §1
# [22] = target: Neu5Ac(a2-3)Gal(b1-4)GlcNAc(b1-3)Gal(b1-4)GlcNAc(b1-6)[Gal(b1-3)]GalNAc
# Outline: as §1
# [23] = target: Neu5Ac(a2-3)Gal(b1-4)GlcNAc(b1-3)Gal(b1-4)[Fuc(a1-3)]GlcNAc
# Outline: as §1
# [24] = target: Neu5Ac(a2-3)Gal(b1-4)GlcNAc(b1-3)GalNAc
# Outline: as §1
# [25] = target: Neu5Ac(a2-3)Gal(b1-4)GlcNAc(b1-3)[Neu5Ac(a2-3)Gal(b1-4)GlcNAc(b1-6)]GalNAc
# Outline: as §1
# [26] = target: Neu5Ac(a2-3)Gal(b1-4)GlcNAc(b1-6)GalNAc
# Outline: as §1
# [27] = target: Neu5Ac(a2-3)Gal(b1-4)GlcNAc(b1-6)[Gal(b1-3)]GalNAc
# Outline: as §1
# [28] = target: Neu5Ac(a2-3)Gal(b1-4)GlcNAc(b1-6)[Neu5Ac(a2-3)Gal(b1-3)]GalNAc
# Outline: as §1
# [29] = target: Neu5Ac(a2-3)Gal(b1-4)GlcNAc6S
# Outline: as §1
# [30] = target: Neu5Ac(a2-3)Gal(b1-4)[Fuc(a1-3)]GlcNAc
# Outline: as §1
# [31] = target: Neu5Ac(a2-3)Gal(b1-4)[Fuc(a1-3)]GlcNAc(b1-2)Man
# Outline: as §1
# [32] = target: Neu5Ac(a2-3)Gal(b1-4)[Fuc(a1-3)]GlcNAc(b1-3)Gal
# Outline: as §1
# [33] = target: Neu5Ac(a2-3)Gal(b1-4)[Fuc(a1-3)]GlcNAc(b1-3)Gal(b1-4)GlcNAc
# Outline: as §1
# [34] = target: Neu5Ac(a2-3)Gal(b1-4)[Fuc(a1-3)]GlcNAc(b1-3)Gal(b1-4)[Fuc(a1-3)]GlcNAc(b1-3)Gal(b1-4)[Fuc(a1-3)]GlcNAc
# Outline: as §1
# [35] = target: Neu5Ac(a2-3)Gal(b1-4)[Fuc(a1-3)]GlcNAc(b1-3)GalNAc
# Outline: as §1
# [36] = target: Neu5Ac(a2-3)Gal(b1-4)[Fuc(a1-3)]GlcNAc(b1-6)[Gal(b1-3)]GalNAc
# Outline: as §1
# [37] = target: Neu5Ac(a2-3)Gal(b1-4)[Fuc(a1-3)]GlcNAc(b1-6)[Neu5Ac(a2-3)Gal(b1-3)]GalNAc
# Outline: as §1
# [38] = target: Neu5Ac(a2-3)Gal(b1-4)[Fuc(a1-3)]GlcNAc6S
# Outline: as §1
# [39] = target: Neu5Ac(a2-3)Gal6S(b1-4)GlcNAc
# Outline: as §1
# [40] = target: Neu5Ac(a2-3)Gal6S(b1-4)[Fuc(a1-3)]GlcNAc
# Outline: as §1
# [41] = target: Neu5Ac(a2-3)GalNAc
# Outline: as §1
# [42] = target: Neu5Ac(a2-3)GalNAc(b1-4)GlcNAc
# Outline: as §1
# [43] = target: Neu5Ac(a2-3)[GalNAc(b1-4)]Gal(b1-4)Glc
# Outline: as §1
# [44] = target: Neu5Ac(a2-3)[GalNAc(b1-4)]Gal(b1-4)GlcNAc
# Outline: as §1
# [45] = target: Neu5Ac(a2-3)[GalNAc(b1-4)]Gal(b1-4)GlcNAc(b1-3)GalNAc
# Outline: as §1
binder,measurement,setting,value
B1,glycan array binding signal (z-score),[1],-0.549
same,glycan array binding signal (z-score),[2],-0.563
same,glycan array binding signal (z-score),[3],-0.413
same,glycan array binding signal (z-score),[4],-0.407
same,glycan array binding signal (z-score),[5],0.863
same,glycan array binding signal (z-score),[6],-0.295
same,glycan array binding signal (z-score),[7],-0.195
same,glycan array binding signal (z-score),[8],0.814
same,glycan array binding signal (z-score),[9],2.2
same,glycan array binding signal (z-score),[10],-0.216
same,glycan array binding signal (z-score),[11],-0.36
same,glycan array binding signal (z-score),[12],0.076
same,glycan array binding signal (z-score),[13],-0.604
same,glycan array binding signal (z-score),[14],-0.438
same,glycan array binding signal (z-score),[15],-0.489
same,glycan array binding signal (z-score),[16],-0.414
same,glycan array binding signal (z-score),[17],-0.47
same,glycan array binding signal (z-score),[18],-0.252
same,glycan array binding signal (z-score),[19],0.599
same,glycan array binding signal (z-score),[20],-0.54
same,glycan array binding signal (z-score),[21],0.22
same,glycan array binding signal (z-score),[22],0.196
same,glycan array binding signal (z-score),[23],-0.478
same,glycan array binding signal (z-score),[24],-0.631
same,glycan array binding signal (z-score),[25],-0.511
same,glycan array binding signal (z-score),[26],-0.38
same,glycan array binding signal (z-score),[27],-0.323
same,glycan array binding signal (z-score),[28],-0.315
same,glycan array binding signal (z-score),[29],0.679
same,glycan array binding signal (z-score),[30],-0.196
same,glycan array binding signal (z-score),[31],-0.236
same,glycan array binding signal (z-score),[32],-0.462
same,glycan array binding signal (z-score),[33],0.582
same,glycan array binding signal (z-score),[34],0.048
same,glycan array binding signal (z-score),[35],1.95
same,glycan array binding signal (z-score),[36],1.24
same,glycan array binding signal (z-score),[37],3.62
same,glycan array binding signal (z-score),[38],-0.239
same,glycan array binding signal (z-score),[39],-0.257
same,glycan array binding signal (z-score),[40],0.06
same,glycan array binding signal (z-score),[41],-0.101
same,glycan array binding signal (z-score),[42],-0.022
same,glycan array binding signal (z-score),[43],1.37
same,glycan array binding signal (z-score),[44],0.149
same,glycan array binding signal (z-score),[45],0.067

# Quoted at random: 3 records from the list, in no set order.
binder,measurement,setting,value
B1,glycan array binding signal (z-score),[17],-0.47
same,glycan array binding signal (z-score),[44],0.149
same,glycan array binding signal (z-score),[37],3.62
